{"source": "the supplement of paper PMC10849652", "assay_in_all_cases": "log2 fold change, soluble protein after heating vs DMSO (PISA); higher = thermal stabilisation; K562 lysate, 10 uM; active = over 0.2 and 3.5 SD of the protein, either way, in both replicates (recomputed)", "key": {"[1]": {"compound": "NCC(=O)Nc1ccc(-n2nc(C(F)(F)F)cc2-c2ccc3c(ccc4ccccc43)c2)cc1", "outline": "(§1)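 The values are log-two fold changes in thermal stability compared with solvent controls and come from duplicates. They were obtained by TMTpro 16plex LC-MS/MS, with channel sums equalised, on the supernatant after 21,000xg for 90 min. That supernatant came from crude K562 extract at 1 mg/mL protein treated with 10 μM compound for 30 min, heated for 3 min across 48°C-58°C, pooled and brought to 0.5% NP-40 at 4°C.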"}, "[2]": {"compound": "O=C(CCCCCCC(=O)Nc1ccccc1)NO [vorinostat]", "outline": "as §1"}, "[3]": {"compound": "O=C(O)c1ccc2c(c1)nc(Nc1cccc(Cl)c1)c1ccncc12 [silmitasertib]", "outline": "as §1"}, "[4]": {"compound": "O=C1NC(=O)C(c2cnc3ccccn23)=C1c1cn2c3c(cc(F)cc13)CN(C(=O)N1CCCCC1)CC2", "outline": "as §1"}, "[5]": {"compound": "c1cn2cc(-c3ccc4cn[nH]c4c3)nc(Nc3ccc(N4CCOCC4)cc3)c2n1 [entospletinib]", "outline": "as §1"}}, "note": "This is one part of the list."}
{"target": "TXN2 (UniProt Q99757)", "values": [{"measurement": "log2 fold change", "setting": "[1]", "result": "inactive: -0.014"}, {"measurement": "log2 fold change", "setting": "[2]", "result": "inactive: 0.099"}, {"measurement": "log2 fold change", "setting": "[3]", "result": "inactive: -0.027"}, {"measurement": "log2 fold change", "setting": "[4]", "result": "inactive: 0.031"}, {"measurement": "log2 fold change", "setting": "[5]", "result": "inactive: -0.001"}]}
{"target": "TUSC3 isoform 2 (UniProt Q13454)", "values": [{"measurement": "log2 fold change", "setting": "[1]", "result": "inactive: 0.026"}, {"measurement": "log2 fold change", "setting": "[2]", "result": "inactive: 0.136"}, {"measurement": "log2 fold change", "setting": "[3]", "result": "inactive: 0.024"}, {"measurement": "log2 fold change", "setting": "[4]", "result": "inactive: 0.009"}, {"measurement": "log2 fold change", "setting": "[5]", "result": "inactive: -0.05"}]}
{"target": "U2AF1 isoform 2 (UniProt Q01081)", "values": [{"measurement": "log2 fold change", "setting": "[1]", "result": "inactive: 0.003"}, {"measurement": "log2 fold change", "setting": "[2]", "result": "inactive: -0.178"}, {"measurement": "log2 fold change", "setting": "[3]", "result": "inactive: 0.01"}, {"measurement": "log2 fold change", "setting": "[4]", "result": "inactive: 0.042"}, {"measurement": "log2 fold change", "setting": "[5]", "result": "inactive: 0.039"}]}
{"target": "UBE2R2 (UniProt Q712K3)", "values": [{"measurement": "log2 fold change", "setting": "[1]", "result": "inactive: 0.036"}, {"measurement": "log2 fold change", "setting": "[2]", "result": "inactive: 0.048"}, {"measurement": "log2 fold change", "setting": "[3]", "result": "inactive: -0.044"}, {"measurement": "log2 fold change", "setting": "[4]", "result": "inactive: -0.031"}, {"measurement": "log2 fold change", "setting": "[5]", "result": "inactive: -0.006"}]}
{"target": "UBE2A (UniProt P49459)", "values": [{"measurement": "log2 fold change", "setting": "[1]", "result": "inactive: 0"}, {"measurement": "log2 fold change", "setting": "[2]", "result": "inactive: 0.093"}, {"measurement": "log2 fold change", "setting": "[3]", "result": "inactive: -0.029"}, {"measurement": "log2 fold change", "setting": "[4]", "result": "inactive: 0.008"}, {"measurement": "log2 fold change", "setting": "[5]", "result": "inactive: 0.024"}]}
{"target": "TUBGCP4 (UniProt Q9UGJ1)", "values": [{"measurement": "log2 fold change", "setting": "[1]", "result": "inactive: -0.11"}, {"measurement": "log2 fold change", "setting": "[2]", "result": "active: -0.219"}, {"measurement": "log2 fold change", "setting": "[3]", "result": "inactive: 0.003"}, {"measurement": "log2 fold change", "setting": "[4]", "result": "inactive: 0.02"}, {"measurement": "log2 fold change", "setting": "[5]", "result": "inactive: 0.038"}]}
{"target": "UBE2J1 (UniProt Q9Y385)", "values": [{"measurement": "log2 fold change", "setting": "[1]", "result": "inactive: -0.099"}, {"measurement": "log2 fold change", "setting": "[2]", "result": "inactive: 0.042"}, {"measurement": "log2 fold change", "setting": "[3]", "result": "inactive: -0.016"}, {"measurement": "log2 fold change", "setting": "[4]", "result": "inactive: 0.02"}, {"measurement": "log2 fold change", "setting": "[5]", "result": "inactive: -0.027"}]}
{"target": "UBE3D (UniProt Q7Z6J8)", "values": [{"measurement": "log2 fold change", "setting": "[1]", "result": "inactive: -0.056"}, {"measurement": "log2 fold change", "setting": "[2]", "result": "inactive: 0.028"}, {"measurement": "log2 fold change", "setting": "[3]", "result": "inactive: -0.039"}, {"measurement": "log2 fold change", "setting": "[4]", "result": "inactive: -0.003"}, {"measurement": "log2 fold change", "setting": "[5]", "result": "inactive: 0.001"}]}
{"target": "UBR4 isoform 4 (UniProt Q5T4S7)", "values": [{"measurement": "log2 fold change", "setting": "[1]", "result": "inactive: -0.145"}, {"measurement": "log2 fold change", "setting": "[2]", "result": "active: -0.792"}, {"measurement": "log2 fold change", "setting": "[3]", "result": "inactive: -0.004"}, {"measurement": "log2 fold change", "setting": "[5]", "result": "inactive: 0.205"}]}
{"target": "TUBGCP6 (UniProt Q96RT7)", "values": [{"measurement": "log2 fold change", "setting": "[1]", "result": "inactive: -0.097"}, {"measurement": "log2 fold change", "setting": "[2]", "result": "inactive: -0.336"}, {"measurement": "log2 fold change", "setting": "[3]", "result": "inactive: 0.041"}, {"measurement": "log2 fold change", "setting": "[4]", "result": "inactive: 0.147"}, {"measurement": "log2 fold change", "setting": "[5]", "result": "inactive: 0.14"}]}
{"target": "TUBAL3 (UniProt A6NHL2)", "values": [{"measurement": "log2 fold change", "setting": "[1]", "result": "inactive: 0.083"}, {"measurement": "log2 fold change", "setting": "[2]", "result": "inactive: -0.195"}, {"measurement": "log2 fold change", "setting": "[3]", "result": "inactive: 0.069"}, {"measurement": "log2 fold change", "setting": "[5]", "result": "inactive: -0.026"}]}
{"target": "UBQLN1 isoform 2 (UniProt Q9UMX0)", "values": [{"measurement": "log2 fold change", "setting": "[1]", "result": "inactive: 0.018"}, {"measurement": "log2 fold change", "setting": "[2]", "result": "inactive: 0.177"}, {"measurement": "log2 fold change", "setting": "[3]", "result": "inactive: 0.141"}, {"measurement": "log2 fold change", "setting": "[4]", "result": "inactive: 0.025"}, {"measurement": "log2 fold change", "setting": "[5]", "result": "inactive: -0.223"}]}
{"target": "TUBB (UniProt P07437)", "values": [{"measurement": "log2 fold change", "setting": "[1]", "result": "inactive: 0.025"}, {"measurement": "log2 fold change", "setting": "[2]", "result": "active: -0.529"}, {"measurement": "log2 fold change", "setting": "[3]", "result": "inactive: 0.009"}, {"measurement": "log2 fold change", "setting": "[4]", "result": "inactive: 0.032"}, {"measurement": "log2 fold change", "setting": "[5]", "result": "inactive: -0.018"}]}
{"target": "TXNRD1 (UniProt Q16881)", "values": [{"measurement": "log2 fold change", "setting": "[1]", "result": "inactive: 0.023"}, {"measurement": "log2 fold change", "setting": "[2]", "result": "inactive: 0.101"}, {"measurement": "log2 fold change", "setting": "[3]", "result": "inactive: 0.003"}, {"measurement": "log2 fold change", "setting": "[4]", "result": "inactive: -0.013"}, {"measurement": "log2 fold change", "setting": "[5]", "result": "inactive: -0.007"}]}
{"target": "U2SURP isoform 2 (UniProt O15042)", "values": [{"measurement": "log2 fold change", "setting": "[1]", "result": "inactive: 0.068"}, {"measurement": "log2 fold change", "setting": "[2]", "result": "inactive: -0.437"}, {"measurement": "log2 fold change", "setting": "[3]", "result": "inactive: -0.272"}, {"measurement": "log2 fold change", "setting": "[5]", "result": "inactive: -0.147"}]}
{"target": "TUFT1 (UniProt Q9NNX1)", "values": [{"measurement": "log2 fold change", "setting": "[2]", "result": "inactive: 0.128"}, {"measurement": "log2 fold change", "setting": "[3]", "result": "inactive: 0.012"}, {"measurement": "log2 fold change", "setting": "[5]", "result": "inactive: 0.024"}]}
{"target": "UBAP2L (UniProt F8W726)", "values": [{"measurement": "log2 fold change", "setting": "[1]", "result": "inactive: 0.062"}, {"measurement": "log2 fold change", "setting": "[4]", "result": "inactive: 0.021"}]}
{"target": "TXNRD3 (UniProt Q86VQ6)", "values": [{"measurement": "log2 fold change", "setting": "[2]", "result": "inactive: 0.13"}, {"measurement": "log2 fold change", "setting": "[3]", "result": "inactive: -0.1"}, {"measurement": "log2 fold change", "setting": "[5]", "result": "inactive: -0.027"}]}
{"target": "TUBB4A (UniProt P04350)", "values": [{"measurement": "log2 fold change", "setting": "[2]", "result": "active: -0.448"}, {"measurement": "log2 fold change", "setting": "[3]", "result": "inactive: 0.065"}, {"measurement": "log2 fold change", "setting": "[4]", "result": "inactive: 0.095"}, {"measurement": "log2 fold change", "setting": "[5]", "result": "inactive: -0.056"}]}
{"target": "TYRO3 (UniProt Q06418)", "values": [{"measurement": "log2 fold change", "setting": "[1]", "result": "inactive: 0.12"}, {"measurement": "log2 fold change", "setting": "[4]", "result": "inactive: -0.016"}, {"measurement": "log2 fold change", "setting": "[5]", "result": "inactive: -0.042"}]}
{"target": "TXNRD1 isoform 7 (UniProt Q16881)", "values": [{"measurement": "log2 fold change", "setting": "[1]", "result": "inactive: 0.322"}, {"measurement": "log2 fold change", "setting": "[5]", "result": "inactive: -0.078"}]}
{"target": "UBOX5 (UniProt O94941)", "values": [{"measurement": "log2 fold change", "setting": "[2]", "result": "inactive: -0.231"}, {"measurement": "log2 fold change", "setting": "[3]", "result": "inactive: -0.063"}]}
{"target": "TUSC2 (UniProt O75896)", "values": [{"measurement": "log2 fold change", "setting": "[2]", "result": "inactive: 0.04"}, {"measurement": "log2 fold change", "setting": "[3]", "result": "inactive: 0.069"}, {"measurement": "log2 fold change", "setting": "[5]", "result": "inactive: 0.227"}]}
{"target": "UCHL1 (UniProt P09936)", "values": [{"measurement": "log2 fold change", "setting": "[5]", "result": "inactive: -0.872"}]}
{"target": "UBA2 (UniProt U3KQ93)", "values": [{"measurement": "log2 fold change", "setting": "[2]", "result": "inactive: -0.117"}, {"measurement": "log2 fold change", "setting": "[3]", "result": "inactive: -0.055"}, {"measurement": "log2 fold change", "setting": "[4]", "result": "inactive: 0.158"}, {"measurement": "log2 fold change", "setting": "[5]", "result": "inactive: 0.055"}]}
{"target": "TUBA8 (UniProt Q9NY65)", "values": [{"measurement": "log2 fold change", "setting": "[2]", "result": "inactive: 0.015"}, {"measurement": "log2 fold change", "setting": "[3]", "result": "inactive: 0.074"}, {"measurement": "log2 fold change", "setting": "[5]", "result": "inactive: -0.012"}]}
{"target": "TUBB2B (UniProt Q9BVA1)", "values": [{"measurement": "log2 fold change", "setting": "[5]", "result": "inactive: 0.021"}]}
{"target": "TYW5 (UniProt A2RUC4)", "values": [{"measurement": "log2 fold change", "setting": "[2]", "result": "inactive: -0.06"}, {"measurement": "log2 fold change", "setting": "[3]", "result": "inactive: 0.113"}, {"measurement": "log2 fold change", "setting": "[4]", "result": "inactive: -0.024"}, {"measurement": "log2 fold change", "setting": "[5]", "result": "inactive: -0.188"}]}
{"target": "TXNDC2 (UniProt Q86VQ3)", "values": [{"measurement": "log2 fold change", "setting": "[2]", "result": "inactive: -0.052"}, {"measurement": "log2 fold change", "setting": "[3]", "result": "inactive: -0.095"}, {"measurement": "log2 fold change", "setting": "[4]", "result": "inactive: -0.037"}]}
{"target": "UBN1 (UniProt Q9NPG3)", "values": [{"measurement": "log2 fold change", "setting": "[1]", "result": "inactive: 0.048"}, {"measurement": "log2 fold change", "setting": "[4]", "result": "inactive: -0.463"}, {"measurement": "log2 fold change", "setting": "[5]", "result": "inactive: -0.034"}]}
